{"source": "PubChem BioAssay AID504834", "about": "(National Center for Advancing Translational Sciences (NCATS), 2011)", "note": "“And” between values parts separate entries of the source, which are not always exact repeats. Identical values can stand only once. Screen size: about 320,000 compounds; about 22,000 (6.9%) were called active. The shares of active, inactive and inconclusive entries below differ from those in the screen. The call rests on the fitted dose curve; in most records, active means well fitted inhibition curve with a large enough effect; inconclusive means small, poorly fitted or top-dose-only effect, or another doubt; inactive means no such curve, though single readings can be large or run the other way. A potency beside an inconclusive call is a rough fit, not a confirmed value. Potency means the concentration at half of the fitted maximal effect.", "data": [{"assay": "Primary qHTS for delayed death inhibitors of the malarial parasite plastid, 96 hour incubation", "conditions": "P. falciparum luciferase reporter growth; series mostly up to 28.7 µM", "outline": "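96 h incubation, 37 C, 5% CO2, of luciferase-reporter P. falciparum-infected RBCs (2% hematocrit, 0.05% parasitemia final) with test compounds; endpoint luminescence.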", "values": [{"compound": "CCN(CC)CCN1c2ccccc2Sc2ccc3ccccc3c21", "Potency": "inconclusive: 9.28 µM [inhibitor, single point]"}, {"compound": "CCN(CC)CCn1c2c(c(SCC(=O)Nc3ccc(F)c(F)c3)nc1=O)CCC2", "Potency": "inconclusive: 8.28 µM [inhibitor, partial curve]"}, {"compound": "Cc1cc(C(=O)COc2cccc3cccnc23)c(C)n1C", "Potency": "active: 3.29 µM"}, {"compound": "CCCCNC(=S)N/N=C/c1ccccc1F", "Potency": "inactive"}, {"compound": "CC(C)NC(=O)NNC(=O)c1cc(COc2cc(Cl)cc(Cl)c2)on1", "Potency": "inactive"}, {"compound": "O=C(NN=C1CCCC1)c1ccc(Cl)cc1", "Potency": "inactive"}, {"compound": "COCCNC(=O)Cn1ccc2cc(S(=O)(=O)N3CCCCCC3)ccc21", "Potency": "inconclusive: 13.1 µM [inhibitor, single point]"}, {"compound": "CCCC(NC(=O)Cc1c(C)c2c(cc(C)c3c(C)coc32)oc1=O)C(=O)O", "note": "(configuration not stated)", "Potency": "inactive"}, {"compound": "COc1ccc(CCN(C)C(=O)C2CCN(Cc3ccccc3)CC2)cc1OC", "Potency": "inconclusive: 2.62 µM [inhibitor, full curve, poor fit]"}, {"compound": "CCCCCCn1cc(C(=O)O)c(=O)c2cc(F)c(N3CCN(C)CC3)cc21", "Potency": "inconclusive: 2.94 µM [inhibitor, partial curve]"}, {"compound": "COc1ccc(C(=O)Nc2ccccn2)cc1S(=O)(=O)N1CCOCC1", "Potency": "inactive"}, {"compound": "CCN(CCCNC(=O)CN(C)S(=O)(=O)c1cccc2nsnc12)c1cccc(C)c1", "Potency": "active: 8.28 µM"}, {"compound": "Cc1ccc(NS(=O)(=O)c2cccc(C(=O)NNC(=O)NC3CCCCC3)c2)c(C)c1", "Potency": "inconclusive: 18.5 µM [inhibitor, single point]"}, {"compound": "COc1ccc(S(=O)(=O)N2CCOC2CNC(=O)C(=O)NCc2ccc(F)cc2)cc1OC", "note": "(configuration not stated)", "Potency": "inconclusive: 13.1 µM [inhibitor, partial curve, poor fit]"}, {"compound": "CC(C)CC(=O)N=Nc1c(O)[nH]c2ccccc12", "Potency": "inconclusive: 0.465 µM [inhibitor, partial curve, poor fit]"}, {"compound": "COc1ccc(C(CC(=O)N2CCC3(CC2)OCCO3)NS(=O)(=O)c2ccc(F)cc2)cc1", "note": "(configuration not stated)", "Potency": "inconclusive: 0.0037 µM [inhibitor, full curve, poor fit]"}, {"compound": "CCN(c1ccccc1)S(=O)(=O)c1ccc(C(=O)Nc2nccs2)cc1", "Potency": "inconclusive: 9.28 µM [inhibitor, partial curve, poor fit]"}, {"compound": "C/C(=N\\S(=O)(=O)c1ccc(C)cc1)NC(=S)Nc1ccccc1", "Potency": "inactive"}, {"compound": "Cc1ccc(CN2CCC(CO)(CC3CCCCO3)CC2)o1", "note": "(configuration not stated)", "Potency": "inconclusive: 14.7 µM [inhibitor, single point]"}, {"compound": "COc1ccc(/C=N/NC(=S)Nc2ccccc2[N+](=O)[O-])cc1O", "Potency": "inactive"}, {"compound": "CCc1ccccc1NC(=O)CN(C)C(=O)COC(=O)c1c(Cl)cccc1Cl", "Potency": "inconclusive: 1.31 µM [inhibitor, single point]"}, {"compound": "COc1ccc(NC(=O)CCS(=O)(=O)c2ccc3c(c2)CCCN3C(C)=O)cc1", "Potency": "inconclusive: 4.15 µM [inhibitor, partial curve, poor fit]"}, {"compound": "COCCN1CCN(C(=O)C2CCC(=O)N(Cc3ccc(Cl)cc3)C2)CC1", "note": "(configuration not stated)", "Potency": "inactive"}, {"compound": "COC(=O)c1scc(C)c1S(=O)(=O)Nc1ccc(C)cc1", "Potency": "active: 11.7 µM"}, {"compound": "O=C1c2ccccc2N2C(=O)c3ccccc3C2N1Cc1ccccc1", "note": "(configuration not stated)", "Potency": "inconclusive: 16.5 µM [inhibitor, single point]"}, {"compound": "CCCCN1C=CC(=C2C(=O)c3ccccc3C2=O)C=C1", "Potency": "inconclusive: 0.0185 µM [inhibitor, full curve, poor fit]"}, {"compound": "O=[N+]([O-])c1cc([As](=O)(O)O)ccc1O", "Potency": "active: 572 nM and active: 1.65 µM"}, {"compound": "CCOCCCNC(=O)C(c1ccc(Cl)cc1)N1CCN(C(=O)c2ccco2)CC1", "note": "(configuration not stated)", "Potency": "inconclusive: 9.28 µM [inhibitor, partial curve, poor fit]"}, {"compound": "Cc1cccc(-c2nc(CS(=O)CC(=O)N3CCCCC3)c(C)o2)c1", "note": "(configuration not stated)", "Potency": "inactive"}, {"compound": "N#Cc1ccccc1CSc1nc2ncc(Br)cc2[nH]1", "Potency": "inactive"}, {"compound": "CCOc1ccc(NC(=O)CN2C(=O)CSc3ccc(S(=O)(=O)N4CCCC4)cc32)cc1", "Potency": "inconclusive: 18.5 µM [inhibitor, partial curve, poor fit]"}, {"compound": "CCCn1cc(CN2CCCC(C(=O)c3cccc(OC)c3)C2)c(C)n1", "note": "(configuration not stated)", "Potency": "inconclusive: 10.4 µM [inhibitor, single point]"}, {"compound": "CC(C)CCNC(=O)NC(=O)CN1C(=O)NC2(CCCCC2)C1=O", "Potency": "inconclusive: 18.5 µM [inhibitor, single point]"}, {"compound": "Cc1cc(SCc2ccc(Cl)cc2)nc(=O)[nH]1", "Potency": "inconclusive: 18.5 µM [inhibitor, single point]"}, {"compound": "Cc1ccccc1-n1nc2c(c1NC(=O)CCCl)CSC2", "Potency": "inactive"}, {"compound": "Oc1oc(-c2ccccc2)nc1C=Nc1ccccc1", "Potency": "inactive"}, {"compound": "Cc1ccc(O)c(NC(=O)c2noc(C(C)C)c2[N+](=O)[O-])c1", "Potency": "inconclusive: 10.4 µM [inhibitor, partial curve]"}, {"compound": "Cc1[nH]c2ccccc2c1C(=O)COC(=O)c1cccc(S(=O)(=O)N2CCCCC2)c1", "Potency": "inconclusive: 18.5 µM [inhibitor, single point]"}, {"compound": "CCOc1ccc(S(=O)(=O)N2CCC(C(=O)NCc3ccccn3)CC2)cc1", "Potency": "inconclusive: 0.657 µM [inhibitor, partial curve, poor fit]"}, {"compound": "Cc1nc(C(=O)N/N=C/c2[nH]ncc2Br)cs1", "Potency": "active: 1.47 µM"}, {"compound": "CC(C)c1nc2oc3c(N(C)CCO)ncnc3c2c2c1CCC2", "Potency": "active: 0.828 µM"}, {"compound": "COc1ccc(C(=O)NNC(=O)CSc2nnc(-c3cccnc3)o2)cc1", "Potency": "inconclusive: 18.5 µM [inhibitor, single point]"}, {"compound": "Cc1ccc(N2C(N)=C(C#N)C(c3cccnc3)C3=C2CC(C)(C)CC3=O)cc1", "note": "(configuration not stated)", "Potency": "inactive"}, {"compound": "Cc1cc(N2CCCC2)nc(-c2ccccc2O)n1", "Potency": "inactive"}, {"compound": "O=C(CC(=O)N/N=C\\c1ccc([N+](=O)[O-])cc1)NCCc1ccccc1", "Potency": "inactive"}, {"compound": "CN(CC(=O)Nc1ccc(F)c(F)c1F)C(=O)C1CCCC1", "Potency": "inconclusive: 18.5 µM [inhibitor, single point]"}, {"compound": "CCOC(=O)Cc1nnc2c(Nc3ccc(C)cc3)nc3nonc3n12", "Potency": "inconclusive: 0.104 µM [inhibitor, full curve, poor fit]"}]}]}
